Measured values from US20160250288A1.
Results are given in words; binding and its absence hold for the method and conditions named. In cells and extracts the contact can be indirect. Some binding calls cover weakened binding; strength is not graded here.

By UniProt entry, the sequences of proteins in these tests, tags left out. Where a name states a change or a piece, a line headed by the entry shows the natural chain unless it says otherwise.
UniProt P32114: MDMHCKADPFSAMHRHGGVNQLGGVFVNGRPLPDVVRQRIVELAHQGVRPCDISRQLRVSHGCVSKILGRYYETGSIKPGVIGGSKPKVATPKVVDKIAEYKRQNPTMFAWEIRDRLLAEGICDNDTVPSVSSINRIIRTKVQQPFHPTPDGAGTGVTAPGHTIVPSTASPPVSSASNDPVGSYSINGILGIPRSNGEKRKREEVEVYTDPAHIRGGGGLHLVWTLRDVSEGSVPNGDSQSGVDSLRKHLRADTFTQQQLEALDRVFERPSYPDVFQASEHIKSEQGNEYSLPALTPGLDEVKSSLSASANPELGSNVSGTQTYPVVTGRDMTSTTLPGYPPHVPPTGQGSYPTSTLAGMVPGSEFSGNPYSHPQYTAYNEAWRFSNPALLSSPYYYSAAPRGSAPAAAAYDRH
UniProt Q2NKI2: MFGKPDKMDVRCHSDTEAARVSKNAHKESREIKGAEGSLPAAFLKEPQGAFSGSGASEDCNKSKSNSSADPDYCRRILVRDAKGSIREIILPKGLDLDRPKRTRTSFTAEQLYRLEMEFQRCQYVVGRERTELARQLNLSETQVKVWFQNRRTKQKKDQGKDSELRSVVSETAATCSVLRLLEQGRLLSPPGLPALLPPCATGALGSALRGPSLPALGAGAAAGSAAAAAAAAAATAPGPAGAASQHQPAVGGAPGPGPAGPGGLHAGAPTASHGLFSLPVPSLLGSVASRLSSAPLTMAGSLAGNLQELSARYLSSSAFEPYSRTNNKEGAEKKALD

What was measured:
[1] = target: Pax2, endogenous in mouse optic nerve (mouse) (UniProt P32114); experiment: co-immunoprecipitation with anti-Vax1 antibody, Western blot, E14.5 mouse optic nerve, with and without 1 mg/ml heparin
[2] = target: Pax2, endogenous in mouse optic nerve (mouse) (UniProt P32114); experiment: co-immunoprecipitation with anti-Vax1 antibody, E14.5 mouse optic nerve treated with heparin

## Vax1 (ventral anterior homeobox 1), mouse (from UniProt Q2NKI2 1-338)
[1]
  binding: binds
[2]
  binding: binds
